Measured values from PubChem BioAssay AID504834 (National Center for Advancing Translational Sciences (NCATS), 2011).
The campaign covered roughly 320,000 compounds. About 22,000 (6.9%) were called active. Inconclusive means that the source gave no clear call. Such entries were picked first, then a sample of the others. Calls come from the whole dose curve; as a rule, active = well fitted inhibition curve with a large enough effect; inconclusive = small, poorly fitted or top-dose-only effect, or another doubt; inactive = no such curve, though single readings can be large or run the other way. Where the call is inconclusive, the potency comes from a doubtful curve fit.

Assay: Primary qHTS for delayed death inhibitors of the malarial parasite plastid, 96 hour incubation
Conditions: P. falciparum luciferase reporter growth; series mostly up to 28.7 µM
Method in brief: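 Two-generation exposure (96 h) targets delayed-death phenotype. Reporter parasites carrying integrated firefly luciferase, in red cells at 2% hematocrit and 0.05% parasitemia final, kept at 37 C, 5% CO2; luminescence loss indicates inhibition.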
Potency is the fitted concentration of half-maximal effect.

| Compound | Potency |
| --- | --- |
| Cc1nn(C)c(C)c1NC(=O)c1ccc(Br)o1 | inactive |
| CCCN(Cc1cc2cc(OC)ccc2[nH]c1=O)C(=O)c1ccco1 | inactive |
| CCOCCCNC(=O)CN1C(=O)CSc2cc(S(=O)(=O)N3CCCCCC3)ccc21 | inconclusive: 11.7 µM [inhibitor, single point] |
| S=c1[nH]nc(-c2cccc(Cl)c2)n1/N=C/c1ccco1 | inactive |
| CCc1cccc(NC(=O)CCNS(=O)(=O)c2ccc3c(c2)oc(=O)n3C)c1 | inconclusive: 18.5 µM [inhibitor, single point] |
| COc1cccc2c1C(=O)c1c(O)c3c(c(O)c1C2=O)C[C@](O)(C(=O)CO)C[C@@H]3O[C@H]1C[C@H](N)[C@@H](O)[C@H](C)O1 | inactive |
| CC(=O)c1cc(-c2ccccc2)n(CCC(=O)NC2CCCCCCC2)c1C | inconclusive: 13.1 µM [inhibitor, partial curve, poor fit] |
| Cc1ccc(C(C)C)c(OCCCNCc2cccnc2)c1 | inconclusive: 10.4 µM [inhibitor, single point] |
| CC1(C)Nc2ccccc2C(=O)N1NC(=O)c1ccccc1 | inconclusive: 3.29 µM [inhibitor, full curve, poor fit] |
| Cc1ccc(N(CCC#N)C(=O)COC(=O)C2=COCCO2)cc1 | inactive |
| CCCCN1C(=O)C(=O)N(CC(=O)Nc2sc(C)c(C)c2C(=O)OC)C1=O | inactive |
| C#CCOCCOCCOCCNc1nc(N2CCN(C(=O)[C@H]([C@@H](C)CC)n3cc([C@@H](N)CC(C)C)nn3)CC2)nc(N2CCN(C(=O)[C@H](CCCCN)n3cc([C@@H](N)CC(C)C)nn3)CC2)n1 | inactive |
| COc1ccc(C(CC(=O)N2CCCC(C)C2)c2c(OC)cc(OC)c3ccc(=O)oc23)cc1 (configuration not stated) | inconclusive: 2.94 µM [inhibitor, single point] |
| CC(=O)Nc1ccc(S(=O)(=O)N2CCN(C(=O)Cc3ccccc3)CC2)cc1 | inconclusive: 1.85 µM [inhibitor, full curve, poor fit] |
| CC(C)N1CCN(Cc2cccc(-n3cccn3)c2)CC1CCO (configuration not stated) | inactive |
| CCOc1ccc(CCNC(=O)Cc2ccc(S(=O)(=O)N3CCOCC3)s2)cc1OCC | inconclusive: 11.7 µM [inhibitor, single point] |
| CCOc1ccc(C(C)=O)cc1CN1C(=O)c2ccccc2S1(=O)=O | inactive |
| Cc1ccc2c(c1)NC(=O)C(CC(=O)NCCCN1CCCC1=O)O2 (configuration not stated) | inconclusive: 18.5 µM [inhibitor, single point] |
| O=C(NNC(=O)c1ccc(Br)s1)c1cccc(S(=O)(=O)N2CCCC2)c1 | inconclusive: 13.1 µM [inhibitor, single point] |
| Cc1cccc(NC2=NCCCS2)c1 | inconclusive: 18.5 µM [inhibitor, single point] |
| O=C(Nc1ccc2c(c1)C(=O)N(CC1CCCO1)C2=O)c1ccccc1Br (configuration not stated) | inconclusive: 13.1 µM [inhibitor, partial curve, poor fit] |
| CC1(C)[C@@H](O)CC[C@]2(C)C3C(O)C=C4[C@H]5C[C@@](C)(CO)CC[C@]5(C)CC[C@]4(C)[C@]3(C)CC[C@@H]12 (some centres not stated) | inconclusive: 18.5 µM [inhibitor, single point] |
| COc1ccc(OC)c(Nc2nc(-c3sc(NC(=O)CC(C)C)nc3C)cs2)c1 | active: 10.4 µM |

| Compound | Potency |
| --- | --- |
| COc1ccccc1-c1cc(N)n(S(=O)(=O)c2ccc(F)c(C)c2)n1 | inconclusive: 14.7 µM [inhibitor, single point] |
| Cc1nn(-c2nc(-c3ccco3)cc(C(F)(F)F)n2)c(C)c1Br | inactive |
| Cc1nc(SCC(=O)N2CCN(C(=O)c3cccs3)CC2)c2c(C)c(C)sc2n1 | inconclusive: 7.38 µM [inhibitor, partial curve] |
| CCCCCN(C(=O)COC(=O)c1ccc(C)cc1)c1c(N)n(CCCC)c(=O)[nH]c1=O | inconclusive: 4.15 µM [inhibitor, partial curve, poor fit] |
| O=C(Nc1ccc(-c2ccc3nncn3n2)cc1)C1CCCC1 | inactive |
| Cc1cc[n+](-c2ccccc2)c2ccccc12 | active: 1.65 µM |
| Cc1nc(SCC(=O)NC(C)(C)C)c2c(-c3cccs3)csc2n1 | inconclusive: 4.65 µM [inhibitor, partial curve] |
| CC(=O)N1N=C(c2ccc(NS(C)(=O)=O)cc2)CC1c1ccc2nccnc2c1 (configuration not stated) | inconclusive: 18.5 µM [inhibitor, single point] |
| CCOc1ccccc1NC(=O)C1CCN(S(=O)(=O)c2c(C)noc2C)CC1 | inconclusive: 0.0026 µM [inhibitor, full curve, poor fit] |
| Cc1ccc(NC(=O)[C@H](NC(=O)[C@@H]2Cc3ccccc3CN2)c2ccccc2)c(C)c1 | inconclusive: 18.5 µM [inhibitor, single point] |
| COc1ccc(CCNC(=O)c2cc3sc(Cl)cc3n2C)cc1OC | active: 9.28 µM |
| Cc1ccc(C)c(N2CCN(C(=O)C(Cc3ccccc3)n3cccc3)CC2)c1 (configuration not stated) | inconclusive: 10.4 µM [inhibitor, single point] |
| COc1ccc(NC(=O)C(c2ccc(C)cc2)N(C)C(=O)c2ccc(=O)[nH]c2)cc1 (configuration not stated) | inconclusive: 1.04 µM [inhibitor, full curve, poor fit] |
| CCC(=O)N(Cc1cc2ccc(C)cc2[nH]c1=O)c1ccccc1OC | inconclusive: 7.38 µM [inhibitor, partial curve] |
| CCN(CC)c1ccc(NC(=O)c2cc3c(OC)cccc3[nH]2)cc1 | inconclusive: 18.5 µM [inhibitor, single point] |
| CCCN(C(=O)c1cn(-c2ccccc2)nc1-c1ccc(OC)cc1)C1CCS(=O)(=O)C1 (configuration not stated) | inconclusive: 2.62 µM [inhibitor, partial curve, poor fit] |
| CC(C(=O)NCC1CCCCC1)N(C)Cc1ccc(Cl)cc1 (configuration not stated) | inactive |
| CCCn1c(C)cc(/C=C(\C#N)C(=O)OCC(=O)Nc2ccc(OC)c(Cl)c2)c1C | inconclusive: 13.1 µM [inhibitor, single point] |
| CCOC(=O)C1CCN(c2nc(-c3ccc(Br)cc3)cs2)CC1 | inconclusive: 1.47 µM [activator, full curve] |
| Cc1ccc(CSCc2ccc(C(=O)NC3CC3)o2)cc1 | inconclusive: 10.4 µM [inhibitor, single point] |
| Cc1ccc(C(=O)NCC(=O)NC2CCCCCC2)cc1 | inconclusive: 11.7 µM [inhibitor, partial curve] |
| CC(C)NS(=O)(=O)c1ccc(OCC(N)=O)c(Cl)c1 | inconclusive: 18.5 µM [inhibitor, single point] |
| Cc1ccc(Nc2nnc(SCC(=O)c3c(N)n(C4CC4)c(=O)[nH]c3=O)s2)cc1C | inconclusive: 7.38 µM [inhibitor, partial curve, poor fit] |

A few values from the entries so far:
In Potency, CCC(=O)N(Cc1cc2ccc(C)cc2[nH]c1=O)c1ccccc1OC is listed with inconclusive: 7.38 µM [inhibitor, partial curve]
In Potency, COc1ccc(NC(=O)C(c2ccc(C)cc2)N(C)C(=O)c2ccc(=O)[nH]c2)cc1 (configuration not stated) is listed with inconclusive: 1.04 µM [inhibitor, full curve, poor fit]

Later entries

| Compound | Potency |
| --- | --- |
| COc1ccc(S(=O)(=O)N2CCC(n3cnc4cc(C(F)(F)F)ccc43)CC2)cc1 | inactive |
| O=C(NCCc1cccs1)C1CC(c2c(Cl)cccc2Cl)=NO1 (configuration not stated) | inconclusive: 8.28 µM [inhibitor, partial curve, poor fit] |
| CC1(C)Cc2ccccc2C(/C(=N\Nc2cccc(Cl)c2)C(N)=O)=N1 | inactive |
| Cc1cc(CN2CCN(CC(=O)Nc3cc(Cl)ccc3-n3cncn3)CC2)no1 | active: 2.08 µM |
| COc1ccc(S(=O)(=O)N2CCN(CCOc3ccc(Br)cc3)CC2)cc1OC | inconclusive: 11.7 µM [inhibitor, single point] |
| CC1(C)N=C(N)N=C(N)N1c1ccccc1 | active: 0.738 µM |
| O=C1ON=C(c2ccccc2)/C1=C/c1ccc(OS(=O)(=O)c2ccccc2)cc1 | inactive |
| CN1CCN(CC(O)(c2ccc(Cl)cc2)c2ccc(Cl)cc2)CC1 | active: 14.7 µM |
| O=C(NCCc1ccccc1)C(c1ccccc1F)N(C(=O)c1csnn1)C1CC1 (configuration not stated) | inconclusive: 11.7 µM [inhibitor, single point] |
| Nc1c(C(=O)NCCN2CCOCC2)c2nc3ccccc3nc2n1-c1ccc2c(c1)OCO2 | active: 2.94 µM |
| COc1ccc(CC(=O)Nc2ccc(OC(C)=O)cc2C(=O)O)cc1 | inconclusive: 9.28 µM [inhibitor, single point] |
| CN(CC(=O)Nc1cccc(F)c1)C(=O)c1ccccc1CCc1ccccc1 | inconclusive: 14.7 µM [inhibitor, partial curve, poor fit] |
| COc1ccc(OC)c(NC(=O)CSc2nc3n[nH]c(C)c3c(=N)n2-c2cccc(Cl)c2C)c1 | inconclusive: 3.29 µM [inhibitor, full curve] |
| CC(=O)C1C(c2cccc(Oc3ccccc3)c2)NC(=O)NC1(O)C(F)(F)F (configuration not stated) | inconclusive: 14.7 µM [inhibitor, partial curve, poor fit] |
| Cc1ccc2nc(-c3ccc(NC(=O)CN(C)S(=O)(=O)c4ccccc4)cc3)sc2c1 | inconclusive: 3.7 µM [inhibitor, single point] |
| COCCCN(C(=O)CCSc1ccc(F)cc1)c1c(N)n(Cc2ccccc2)c(=O)[nH]c1=O | inconclusive: 4.15 µM [inhibitor, single point] |
| NC(=O)CNc1n[nH]c(=S)[nH]c1=O | inactive |
| COc1ccc(CCNC(=O)CN(c2cccc([N+](=O)[O-])c2)S(C)(=O)=O)cc1OC | inactive |
| CN(C)S(=O)(=O)c1cccc(COC(=O)CNC(=O)c2ccc(Br)o2)c1 | inactive |
| COCCCNC(=O)CN(c1ccc(F)cc1)S(=O)(=O)c1ccc2c(c1)OCCO2 | inactive |
| CCc1cc(C(=O)N/N=C/c2c(C)[nH]c3ccccc23)cs1 | inactive |

Structures listed so far that have a furan ring, fused or not (6):

| Compound | Potency |
| --- | --- |
| Cc1nn(C)c(C)c1NC(=O)c1ccc(Br)o1 | inactive |
| CCCN(Cc1cc2cc(OC)ccc2[nH]c1=O)C(=O)c1ccco1 | inactive |
| S=c1[nH]nc(-c2cccc(Cl)c2)n1/N=C/c1ccco1 | inactive |
| Cc1nn(-c2nc(-c3ccco3)cc(C(F)(F)F)n2)c(C)c1Br | inactive |
| Cc1ccc(CSCc2ccc(C(=O)NC3CC3)o2)cc1 | inconclusive: 10.4 µM [inhibitor, single point] |
| CN(C)S(=O)(=O)c1cccc(COC(=O)CNC(=O)c2ccc(Br)o2)c1 | inactive |
